Reference: paper PMC11964227, “Critical functions and key interactions mediated by the RNase E scaffolding domain in Pseudomonas aeruginosa” (PLOS Genetics, 2025)
Where two headings read alike, the source gives them in different places. No constants are given. Whether binding was seen depends on the method and setting. Binding seen in cells or lysates may run through a third protein. These calls come from enrichment with a bait or labelling near it, and not all partners need be listed. For some of these results: No binding means not detected with the bait. Values belong to the molecule of their own block, whether it stands above or below them.

The chains behind the UniProt entries cited, without tags or fusion partners. Where a name states a change or a piece, a line headed by the entry shows the natural chain unless it says otherwise. Residues count along the entry.
UniProt Q9HZM8: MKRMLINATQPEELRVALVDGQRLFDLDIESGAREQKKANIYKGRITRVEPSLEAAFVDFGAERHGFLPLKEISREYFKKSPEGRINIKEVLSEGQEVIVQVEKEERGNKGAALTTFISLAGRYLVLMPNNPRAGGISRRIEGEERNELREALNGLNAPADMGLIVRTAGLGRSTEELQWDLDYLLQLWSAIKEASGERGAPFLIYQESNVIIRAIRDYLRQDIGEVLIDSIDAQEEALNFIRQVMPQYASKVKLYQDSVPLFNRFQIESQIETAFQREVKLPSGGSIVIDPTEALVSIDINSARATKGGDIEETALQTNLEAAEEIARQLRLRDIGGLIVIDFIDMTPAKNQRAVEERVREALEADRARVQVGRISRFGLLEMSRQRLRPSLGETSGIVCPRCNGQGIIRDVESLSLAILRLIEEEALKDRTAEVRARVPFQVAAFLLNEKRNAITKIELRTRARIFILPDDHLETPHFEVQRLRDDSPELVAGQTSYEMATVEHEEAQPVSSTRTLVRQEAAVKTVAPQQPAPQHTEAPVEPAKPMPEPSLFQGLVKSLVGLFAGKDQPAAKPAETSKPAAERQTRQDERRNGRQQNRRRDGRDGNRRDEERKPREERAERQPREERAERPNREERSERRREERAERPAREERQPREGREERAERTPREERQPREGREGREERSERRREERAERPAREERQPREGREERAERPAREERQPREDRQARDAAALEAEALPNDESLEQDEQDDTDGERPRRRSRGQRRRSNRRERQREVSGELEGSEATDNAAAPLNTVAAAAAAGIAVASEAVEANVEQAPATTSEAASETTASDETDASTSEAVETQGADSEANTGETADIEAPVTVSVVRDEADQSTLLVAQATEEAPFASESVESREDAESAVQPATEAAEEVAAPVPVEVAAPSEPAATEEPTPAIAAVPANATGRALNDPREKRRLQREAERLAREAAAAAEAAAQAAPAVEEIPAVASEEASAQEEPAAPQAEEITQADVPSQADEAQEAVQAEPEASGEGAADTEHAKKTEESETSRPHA
RNase E^1-529-Strep: residues 1-529 of Q9HZM8
UniProt Q9HWC9: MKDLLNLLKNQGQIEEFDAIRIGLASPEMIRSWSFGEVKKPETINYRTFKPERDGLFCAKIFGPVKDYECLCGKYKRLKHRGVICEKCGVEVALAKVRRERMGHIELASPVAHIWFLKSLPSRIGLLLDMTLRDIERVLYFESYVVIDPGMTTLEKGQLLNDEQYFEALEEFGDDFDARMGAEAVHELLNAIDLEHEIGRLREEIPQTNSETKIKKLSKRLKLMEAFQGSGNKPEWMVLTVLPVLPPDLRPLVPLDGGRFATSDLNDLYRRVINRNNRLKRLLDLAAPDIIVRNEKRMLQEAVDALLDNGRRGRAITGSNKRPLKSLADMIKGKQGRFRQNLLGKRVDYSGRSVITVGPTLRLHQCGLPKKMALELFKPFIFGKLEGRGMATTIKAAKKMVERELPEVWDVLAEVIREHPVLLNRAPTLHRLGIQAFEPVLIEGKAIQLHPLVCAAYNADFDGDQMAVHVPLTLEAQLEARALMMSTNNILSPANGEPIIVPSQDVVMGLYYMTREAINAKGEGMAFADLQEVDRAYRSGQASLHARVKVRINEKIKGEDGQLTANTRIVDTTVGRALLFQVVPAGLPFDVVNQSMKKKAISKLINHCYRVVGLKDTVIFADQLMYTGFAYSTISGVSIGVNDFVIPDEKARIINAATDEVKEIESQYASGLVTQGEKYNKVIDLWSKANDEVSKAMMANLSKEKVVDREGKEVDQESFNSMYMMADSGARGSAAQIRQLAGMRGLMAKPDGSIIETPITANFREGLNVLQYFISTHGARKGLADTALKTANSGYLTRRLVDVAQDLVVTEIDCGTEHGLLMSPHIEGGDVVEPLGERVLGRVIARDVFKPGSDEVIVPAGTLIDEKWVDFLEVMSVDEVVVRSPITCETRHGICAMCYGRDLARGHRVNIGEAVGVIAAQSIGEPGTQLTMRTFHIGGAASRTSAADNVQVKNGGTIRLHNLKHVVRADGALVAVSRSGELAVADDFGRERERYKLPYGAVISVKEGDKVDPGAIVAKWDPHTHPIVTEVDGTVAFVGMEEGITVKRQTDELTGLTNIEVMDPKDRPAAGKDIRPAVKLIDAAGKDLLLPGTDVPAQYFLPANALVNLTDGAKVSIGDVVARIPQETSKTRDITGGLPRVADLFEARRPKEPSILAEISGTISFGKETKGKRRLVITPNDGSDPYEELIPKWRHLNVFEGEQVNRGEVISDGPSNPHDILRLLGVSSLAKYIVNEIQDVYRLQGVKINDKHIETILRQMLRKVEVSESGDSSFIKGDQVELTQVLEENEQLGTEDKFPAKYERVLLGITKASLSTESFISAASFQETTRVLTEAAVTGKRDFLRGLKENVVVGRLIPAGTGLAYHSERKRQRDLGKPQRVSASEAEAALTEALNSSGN
UniProt Q51561: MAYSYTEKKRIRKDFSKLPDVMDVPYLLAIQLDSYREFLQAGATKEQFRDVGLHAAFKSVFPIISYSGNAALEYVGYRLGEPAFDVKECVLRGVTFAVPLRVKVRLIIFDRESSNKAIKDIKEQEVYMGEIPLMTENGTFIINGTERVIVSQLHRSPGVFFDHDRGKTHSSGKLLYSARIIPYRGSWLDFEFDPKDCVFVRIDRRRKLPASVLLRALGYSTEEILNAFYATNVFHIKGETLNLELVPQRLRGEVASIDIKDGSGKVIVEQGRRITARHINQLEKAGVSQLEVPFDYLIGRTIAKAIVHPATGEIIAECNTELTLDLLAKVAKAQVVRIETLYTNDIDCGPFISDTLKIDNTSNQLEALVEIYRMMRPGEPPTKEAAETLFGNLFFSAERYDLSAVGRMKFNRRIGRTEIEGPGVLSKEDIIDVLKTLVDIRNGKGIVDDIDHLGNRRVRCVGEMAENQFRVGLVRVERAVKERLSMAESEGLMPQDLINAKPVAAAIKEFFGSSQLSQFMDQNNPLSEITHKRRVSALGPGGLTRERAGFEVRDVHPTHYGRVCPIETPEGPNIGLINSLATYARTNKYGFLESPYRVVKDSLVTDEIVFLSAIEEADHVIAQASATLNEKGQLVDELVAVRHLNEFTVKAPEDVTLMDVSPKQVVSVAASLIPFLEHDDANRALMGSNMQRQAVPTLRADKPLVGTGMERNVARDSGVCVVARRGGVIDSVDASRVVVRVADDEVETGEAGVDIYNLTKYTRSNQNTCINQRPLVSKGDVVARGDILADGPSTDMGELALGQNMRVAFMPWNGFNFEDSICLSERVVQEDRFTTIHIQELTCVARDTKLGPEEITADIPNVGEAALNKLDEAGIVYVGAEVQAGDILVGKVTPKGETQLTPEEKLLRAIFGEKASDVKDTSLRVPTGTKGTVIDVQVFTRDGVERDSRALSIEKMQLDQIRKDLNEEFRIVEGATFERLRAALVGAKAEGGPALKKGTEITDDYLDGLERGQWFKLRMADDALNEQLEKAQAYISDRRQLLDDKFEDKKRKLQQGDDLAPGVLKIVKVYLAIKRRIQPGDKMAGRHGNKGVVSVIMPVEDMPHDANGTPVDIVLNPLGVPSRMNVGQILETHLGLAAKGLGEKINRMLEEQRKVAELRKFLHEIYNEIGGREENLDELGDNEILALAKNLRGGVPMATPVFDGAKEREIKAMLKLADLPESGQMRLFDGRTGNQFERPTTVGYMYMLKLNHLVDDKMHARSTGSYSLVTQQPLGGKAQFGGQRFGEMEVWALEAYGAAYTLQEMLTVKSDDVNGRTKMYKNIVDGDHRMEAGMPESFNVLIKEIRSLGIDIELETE
UniProt Q9I689: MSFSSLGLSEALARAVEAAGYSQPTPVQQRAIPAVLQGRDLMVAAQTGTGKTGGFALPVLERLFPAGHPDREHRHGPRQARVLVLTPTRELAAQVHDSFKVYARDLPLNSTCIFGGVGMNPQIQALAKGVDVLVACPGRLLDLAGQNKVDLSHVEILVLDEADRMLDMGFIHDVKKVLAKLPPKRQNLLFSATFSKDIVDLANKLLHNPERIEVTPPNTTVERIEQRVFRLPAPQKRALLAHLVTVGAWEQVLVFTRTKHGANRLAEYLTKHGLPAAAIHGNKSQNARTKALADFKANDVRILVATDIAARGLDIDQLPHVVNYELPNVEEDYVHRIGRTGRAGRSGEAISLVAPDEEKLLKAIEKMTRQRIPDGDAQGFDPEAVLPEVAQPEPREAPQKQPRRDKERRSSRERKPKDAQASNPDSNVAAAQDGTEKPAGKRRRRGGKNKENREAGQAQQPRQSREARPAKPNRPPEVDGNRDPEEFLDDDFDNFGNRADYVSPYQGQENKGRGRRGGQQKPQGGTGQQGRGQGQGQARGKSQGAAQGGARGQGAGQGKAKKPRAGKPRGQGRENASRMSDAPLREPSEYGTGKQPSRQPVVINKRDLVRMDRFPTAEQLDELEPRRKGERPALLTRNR
UniProt Q9HWC8: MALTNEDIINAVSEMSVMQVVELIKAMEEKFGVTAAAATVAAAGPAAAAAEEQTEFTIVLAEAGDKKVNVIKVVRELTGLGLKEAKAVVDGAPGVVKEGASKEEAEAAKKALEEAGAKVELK
UniProt Q9HZE0: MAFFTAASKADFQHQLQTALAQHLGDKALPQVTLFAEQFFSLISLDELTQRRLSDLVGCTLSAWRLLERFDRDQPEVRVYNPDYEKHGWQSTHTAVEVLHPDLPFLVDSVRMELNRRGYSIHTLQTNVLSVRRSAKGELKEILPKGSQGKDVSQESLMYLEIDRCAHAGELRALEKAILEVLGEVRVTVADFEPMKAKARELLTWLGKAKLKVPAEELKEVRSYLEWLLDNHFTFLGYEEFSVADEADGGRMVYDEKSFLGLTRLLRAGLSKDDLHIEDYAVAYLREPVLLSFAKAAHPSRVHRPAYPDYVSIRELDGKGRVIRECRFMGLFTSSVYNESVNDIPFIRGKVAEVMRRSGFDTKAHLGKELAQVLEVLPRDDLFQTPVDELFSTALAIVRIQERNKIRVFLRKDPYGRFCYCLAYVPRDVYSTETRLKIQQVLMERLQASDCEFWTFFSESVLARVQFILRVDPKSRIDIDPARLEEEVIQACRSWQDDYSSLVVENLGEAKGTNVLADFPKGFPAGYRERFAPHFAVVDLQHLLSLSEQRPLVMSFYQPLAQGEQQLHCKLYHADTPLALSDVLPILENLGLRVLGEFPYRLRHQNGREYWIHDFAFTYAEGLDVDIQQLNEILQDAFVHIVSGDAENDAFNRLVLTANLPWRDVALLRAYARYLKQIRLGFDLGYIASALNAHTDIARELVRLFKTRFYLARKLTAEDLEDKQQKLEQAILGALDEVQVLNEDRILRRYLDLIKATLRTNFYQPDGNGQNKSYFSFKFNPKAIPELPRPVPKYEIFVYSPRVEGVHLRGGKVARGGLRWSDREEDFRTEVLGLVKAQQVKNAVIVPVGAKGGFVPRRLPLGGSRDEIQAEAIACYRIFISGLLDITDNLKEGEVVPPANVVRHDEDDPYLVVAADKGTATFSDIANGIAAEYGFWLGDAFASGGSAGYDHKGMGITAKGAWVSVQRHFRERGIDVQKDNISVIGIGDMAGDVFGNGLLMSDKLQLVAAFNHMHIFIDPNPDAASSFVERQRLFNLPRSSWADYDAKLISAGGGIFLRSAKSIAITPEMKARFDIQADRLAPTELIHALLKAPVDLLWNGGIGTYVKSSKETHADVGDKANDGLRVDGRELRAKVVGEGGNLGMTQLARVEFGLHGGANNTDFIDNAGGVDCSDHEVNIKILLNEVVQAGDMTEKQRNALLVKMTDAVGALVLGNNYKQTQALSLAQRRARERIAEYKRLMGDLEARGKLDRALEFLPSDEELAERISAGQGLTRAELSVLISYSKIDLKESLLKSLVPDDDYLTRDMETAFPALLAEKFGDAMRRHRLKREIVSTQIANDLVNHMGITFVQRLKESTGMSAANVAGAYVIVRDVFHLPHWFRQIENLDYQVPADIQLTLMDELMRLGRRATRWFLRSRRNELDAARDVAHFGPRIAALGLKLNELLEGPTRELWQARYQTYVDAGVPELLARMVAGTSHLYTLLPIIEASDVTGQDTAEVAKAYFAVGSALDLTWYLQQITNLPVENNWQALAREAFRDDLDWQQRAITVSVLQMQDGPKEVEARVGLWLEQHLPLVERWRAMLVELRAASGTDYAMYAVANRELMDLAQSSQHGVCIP

Assays:
Assay in all cases: affinity purification with mass spectrometry; Strep-tagged RNase E bait from PAO1 lysates on MagStrep Strep-Tactin XT beads, 20 mM Tris (pH 10), 250 mM NaCl, 10% glycerol, 4°C; LC-MS/MS of the beads; duplicates; untagged PAO1 WT as control
[1] = target: RNase E^1-1057-Strep (P. aeruginosa PAO1) (UniProt Q9HZM8)
[2] = target: RNase E^1-529-Strep (P. aeruginosa PAO1) (UniProt Q9HZM8)
[3] = target: RNase E^1-1057-Strep (P. aeruginosa PAO1) (UniProt Q9HZM8); remark: listed apart in the source
[4] = target: RNase E^1-529-Strep (P. aeruginosa PAO1) (UniProt Q9HZM8); remark: listed apart in the source

- binding [1]: binds
Molecule: RpoC (from UniProt Q9HWC9 1-1399)

- binding [1]: binds
Molecule: RpoB (from UniProt Q51561 1-1357)

- binding [1]: binds
- binding [2]: binds
Molecule: RhlE2 RNA helicase (from UniProt Q9I689) (enzyme)

- binding [1]: binds
Molecule: RplL (from UniProt Q9HWC8 1-122)

- binding [1]: binds
- binding [2]: no binding
Molecule: GdhB (from UniProt Q9HZE0 1-1620)

- binding [3]: binds
- binding [4]: no binding
B1: T25-PNPase (enzyme, P. aeruginosa, UniProt Q9HV59 1-701, looked up)
chain: MNPVTKQFQFGQSTVTLETGRIARQATGAVLVTMDDVSVLVTVVGAKSPAEGRDFFPLSVHYQEKTYAAGRIPGGFFKREGRPSEKETLTSRLIDRPIRPLFPEGFMNEVQVVCTVVSTNKKSDPDIAAMIGTSAALAISGIPFAGPIGAARVGFHPEIGYILNPTYEQLQSSSLDMVVAGTEDAVLMVESEADELTEDQMLGAVLFAHDEFQAVIRAVKELAAEAGKPAWDWKAPAENTVLVNAIKAELGEAISQAYTITIKQDRYNRLGELRDQAVALFAGEEEGKFPASEVKDVFGLLEYRTVRENIVNGKPRIDGRDTRTVRPLRIEVGVLGKTHGSALFTRGETQALVVATLGTARDAQLLDTLEGERKDAFMLHYNFPPFSVGECGRMGSPGRREIGHGRLARRGVAAMLPTQDEFPYTIRVVSEITESNGSSSMASVCGASLALMDAGVPVKAPVAGIAMGLVKEGEKFAVLTDILGDEDHLGDMDFKVAGTDKGVTALQMDIKINGITEEIMEIALGQALEARLNILGQMNQVIAKPRAELSENAPTMLQMKIDSDKIRDVIGKGGATIRGICEETKASIDIEDDGSVKIYGETKEAAEAAKLRVLAITAEAEIGKIYVGKVERIVDFGAFVNILPGKDGLVHISQISDKRIDKVTDVLQEGQEVKVLVLDVDNRGRIKLSIKDVAAAEASGV
notes: Polyribonucleotide phosphorylase (PNPase), P. aeruginosa, pnp; source: bacterial two-hybrid fusion (pKT25), E. coli BTH101

- binding [4]: no binding
B2: ArcB (enzyme, UniProt P08308 1-336)
chain: MAFNMHNRNLLSLMHHSTRELRYLLDLSRDLKRAKYTGTEQQHLKRKNIALIFEKTSTRTRCAFEVAAYDQGANVTYIDPNSSQIGHKESMKDTARVLGRMYDAIEYRGFKQEIVEELAKFAGVPVFNGLTDEYHPTQMLADVLTMREHSDKPLHDISYAYLGDARNNMGNSLLLIGAKLGMDVRIAAPKALWPHDEFVAQCKKFAEESGAKLTLTEDPKEAVKGVDFVHTDVWVSMGEPVEAWGERIKELLPYQVNMEIMKATGNPRAKFMHCLPAFHNSETKVGKQIAEQYPNLANGIEVTEDVFESPYNIAFEQAENRMHTIKAILVSTLADI
